This passage reports log2 fold change results from the supplement of paper PMC10849652.

By UniProt entry, the sequences of proteins in these tests, tags left out. Where a name states a change or a piece, a line headed by the entry shows the natural chain unless it says otherwise.
UniProt Q6UWP2: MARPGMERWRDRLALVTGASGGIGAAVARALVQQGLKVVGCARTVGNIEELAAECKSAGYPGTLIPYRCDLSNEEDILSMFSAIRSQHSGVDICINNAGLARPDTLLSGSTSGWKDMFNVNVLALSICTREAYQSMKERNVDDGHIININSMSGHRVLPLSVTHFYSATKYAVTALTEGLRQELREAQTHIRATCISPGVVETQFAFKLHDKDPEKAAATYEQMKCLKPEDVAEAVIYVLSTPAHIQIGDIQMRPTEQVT
UniProt O43143: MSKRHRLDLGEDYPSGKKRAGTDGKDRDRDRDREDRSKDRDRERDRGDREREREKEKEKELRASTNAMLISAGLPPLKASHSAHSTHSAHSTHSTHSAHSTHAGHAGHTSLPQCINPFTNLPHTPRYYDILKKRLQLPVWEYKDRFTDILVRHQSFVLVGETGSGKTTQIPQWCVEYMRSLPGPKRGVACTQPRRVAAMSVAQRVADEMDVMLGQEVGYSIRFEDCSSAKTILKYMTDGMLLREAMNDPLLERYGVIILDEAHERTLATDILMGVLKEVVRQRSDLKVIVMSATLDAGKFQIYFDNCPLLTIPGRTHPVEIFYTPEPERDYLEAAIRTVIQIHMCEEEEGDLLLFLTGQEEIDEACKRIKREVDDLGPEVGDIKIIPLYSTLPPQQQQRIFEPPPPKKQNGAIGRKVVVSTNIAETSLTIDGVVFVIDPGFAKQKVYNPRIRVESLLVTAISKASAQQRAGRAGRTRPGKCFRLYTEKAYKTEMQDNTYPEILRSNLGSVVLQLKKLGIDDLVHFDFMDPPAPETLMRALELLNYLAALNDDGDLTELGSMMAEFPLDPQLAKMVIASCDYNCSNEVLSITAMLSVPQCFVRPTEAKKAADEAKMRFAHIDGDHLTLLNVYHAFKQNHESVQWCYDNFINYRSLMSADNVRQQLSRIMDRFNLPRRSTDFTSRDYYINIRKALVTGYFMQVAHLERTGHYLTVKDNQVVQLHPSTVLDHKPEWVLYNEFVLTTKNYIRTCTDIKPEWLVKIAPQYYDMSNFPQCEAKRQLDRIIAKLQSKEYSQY
UniProt P30046: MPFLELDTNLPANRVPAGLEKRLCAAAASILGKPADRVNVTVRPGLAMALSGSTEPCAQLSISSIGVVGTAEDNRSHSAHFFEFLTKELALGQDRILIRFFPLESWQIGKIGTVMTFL
UniProt Q9Y6V7: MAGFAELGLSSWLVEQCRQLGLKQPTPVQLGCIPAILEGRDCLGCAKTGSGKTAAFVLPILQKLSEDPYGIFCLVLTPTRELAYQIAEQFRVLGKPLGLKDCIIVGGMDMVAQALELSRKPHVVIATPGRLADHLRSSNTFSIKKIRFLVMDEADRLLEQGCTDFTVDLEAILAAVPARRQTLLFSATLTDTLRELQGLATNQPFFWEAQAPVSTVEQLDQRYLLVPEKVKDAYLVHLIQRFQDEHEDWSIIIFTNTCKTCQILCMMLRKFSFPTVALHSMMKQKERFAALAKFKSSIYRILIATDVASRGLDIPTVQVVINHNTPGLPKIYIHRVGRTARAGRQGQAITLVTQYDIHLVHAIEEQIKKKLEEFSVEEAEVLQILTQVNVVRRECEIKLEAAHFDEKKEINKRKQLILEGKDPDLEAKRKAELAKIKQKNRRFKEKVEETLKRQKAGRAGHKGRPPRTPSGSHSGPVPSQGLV
UniProt P11532, whole entry, looked up: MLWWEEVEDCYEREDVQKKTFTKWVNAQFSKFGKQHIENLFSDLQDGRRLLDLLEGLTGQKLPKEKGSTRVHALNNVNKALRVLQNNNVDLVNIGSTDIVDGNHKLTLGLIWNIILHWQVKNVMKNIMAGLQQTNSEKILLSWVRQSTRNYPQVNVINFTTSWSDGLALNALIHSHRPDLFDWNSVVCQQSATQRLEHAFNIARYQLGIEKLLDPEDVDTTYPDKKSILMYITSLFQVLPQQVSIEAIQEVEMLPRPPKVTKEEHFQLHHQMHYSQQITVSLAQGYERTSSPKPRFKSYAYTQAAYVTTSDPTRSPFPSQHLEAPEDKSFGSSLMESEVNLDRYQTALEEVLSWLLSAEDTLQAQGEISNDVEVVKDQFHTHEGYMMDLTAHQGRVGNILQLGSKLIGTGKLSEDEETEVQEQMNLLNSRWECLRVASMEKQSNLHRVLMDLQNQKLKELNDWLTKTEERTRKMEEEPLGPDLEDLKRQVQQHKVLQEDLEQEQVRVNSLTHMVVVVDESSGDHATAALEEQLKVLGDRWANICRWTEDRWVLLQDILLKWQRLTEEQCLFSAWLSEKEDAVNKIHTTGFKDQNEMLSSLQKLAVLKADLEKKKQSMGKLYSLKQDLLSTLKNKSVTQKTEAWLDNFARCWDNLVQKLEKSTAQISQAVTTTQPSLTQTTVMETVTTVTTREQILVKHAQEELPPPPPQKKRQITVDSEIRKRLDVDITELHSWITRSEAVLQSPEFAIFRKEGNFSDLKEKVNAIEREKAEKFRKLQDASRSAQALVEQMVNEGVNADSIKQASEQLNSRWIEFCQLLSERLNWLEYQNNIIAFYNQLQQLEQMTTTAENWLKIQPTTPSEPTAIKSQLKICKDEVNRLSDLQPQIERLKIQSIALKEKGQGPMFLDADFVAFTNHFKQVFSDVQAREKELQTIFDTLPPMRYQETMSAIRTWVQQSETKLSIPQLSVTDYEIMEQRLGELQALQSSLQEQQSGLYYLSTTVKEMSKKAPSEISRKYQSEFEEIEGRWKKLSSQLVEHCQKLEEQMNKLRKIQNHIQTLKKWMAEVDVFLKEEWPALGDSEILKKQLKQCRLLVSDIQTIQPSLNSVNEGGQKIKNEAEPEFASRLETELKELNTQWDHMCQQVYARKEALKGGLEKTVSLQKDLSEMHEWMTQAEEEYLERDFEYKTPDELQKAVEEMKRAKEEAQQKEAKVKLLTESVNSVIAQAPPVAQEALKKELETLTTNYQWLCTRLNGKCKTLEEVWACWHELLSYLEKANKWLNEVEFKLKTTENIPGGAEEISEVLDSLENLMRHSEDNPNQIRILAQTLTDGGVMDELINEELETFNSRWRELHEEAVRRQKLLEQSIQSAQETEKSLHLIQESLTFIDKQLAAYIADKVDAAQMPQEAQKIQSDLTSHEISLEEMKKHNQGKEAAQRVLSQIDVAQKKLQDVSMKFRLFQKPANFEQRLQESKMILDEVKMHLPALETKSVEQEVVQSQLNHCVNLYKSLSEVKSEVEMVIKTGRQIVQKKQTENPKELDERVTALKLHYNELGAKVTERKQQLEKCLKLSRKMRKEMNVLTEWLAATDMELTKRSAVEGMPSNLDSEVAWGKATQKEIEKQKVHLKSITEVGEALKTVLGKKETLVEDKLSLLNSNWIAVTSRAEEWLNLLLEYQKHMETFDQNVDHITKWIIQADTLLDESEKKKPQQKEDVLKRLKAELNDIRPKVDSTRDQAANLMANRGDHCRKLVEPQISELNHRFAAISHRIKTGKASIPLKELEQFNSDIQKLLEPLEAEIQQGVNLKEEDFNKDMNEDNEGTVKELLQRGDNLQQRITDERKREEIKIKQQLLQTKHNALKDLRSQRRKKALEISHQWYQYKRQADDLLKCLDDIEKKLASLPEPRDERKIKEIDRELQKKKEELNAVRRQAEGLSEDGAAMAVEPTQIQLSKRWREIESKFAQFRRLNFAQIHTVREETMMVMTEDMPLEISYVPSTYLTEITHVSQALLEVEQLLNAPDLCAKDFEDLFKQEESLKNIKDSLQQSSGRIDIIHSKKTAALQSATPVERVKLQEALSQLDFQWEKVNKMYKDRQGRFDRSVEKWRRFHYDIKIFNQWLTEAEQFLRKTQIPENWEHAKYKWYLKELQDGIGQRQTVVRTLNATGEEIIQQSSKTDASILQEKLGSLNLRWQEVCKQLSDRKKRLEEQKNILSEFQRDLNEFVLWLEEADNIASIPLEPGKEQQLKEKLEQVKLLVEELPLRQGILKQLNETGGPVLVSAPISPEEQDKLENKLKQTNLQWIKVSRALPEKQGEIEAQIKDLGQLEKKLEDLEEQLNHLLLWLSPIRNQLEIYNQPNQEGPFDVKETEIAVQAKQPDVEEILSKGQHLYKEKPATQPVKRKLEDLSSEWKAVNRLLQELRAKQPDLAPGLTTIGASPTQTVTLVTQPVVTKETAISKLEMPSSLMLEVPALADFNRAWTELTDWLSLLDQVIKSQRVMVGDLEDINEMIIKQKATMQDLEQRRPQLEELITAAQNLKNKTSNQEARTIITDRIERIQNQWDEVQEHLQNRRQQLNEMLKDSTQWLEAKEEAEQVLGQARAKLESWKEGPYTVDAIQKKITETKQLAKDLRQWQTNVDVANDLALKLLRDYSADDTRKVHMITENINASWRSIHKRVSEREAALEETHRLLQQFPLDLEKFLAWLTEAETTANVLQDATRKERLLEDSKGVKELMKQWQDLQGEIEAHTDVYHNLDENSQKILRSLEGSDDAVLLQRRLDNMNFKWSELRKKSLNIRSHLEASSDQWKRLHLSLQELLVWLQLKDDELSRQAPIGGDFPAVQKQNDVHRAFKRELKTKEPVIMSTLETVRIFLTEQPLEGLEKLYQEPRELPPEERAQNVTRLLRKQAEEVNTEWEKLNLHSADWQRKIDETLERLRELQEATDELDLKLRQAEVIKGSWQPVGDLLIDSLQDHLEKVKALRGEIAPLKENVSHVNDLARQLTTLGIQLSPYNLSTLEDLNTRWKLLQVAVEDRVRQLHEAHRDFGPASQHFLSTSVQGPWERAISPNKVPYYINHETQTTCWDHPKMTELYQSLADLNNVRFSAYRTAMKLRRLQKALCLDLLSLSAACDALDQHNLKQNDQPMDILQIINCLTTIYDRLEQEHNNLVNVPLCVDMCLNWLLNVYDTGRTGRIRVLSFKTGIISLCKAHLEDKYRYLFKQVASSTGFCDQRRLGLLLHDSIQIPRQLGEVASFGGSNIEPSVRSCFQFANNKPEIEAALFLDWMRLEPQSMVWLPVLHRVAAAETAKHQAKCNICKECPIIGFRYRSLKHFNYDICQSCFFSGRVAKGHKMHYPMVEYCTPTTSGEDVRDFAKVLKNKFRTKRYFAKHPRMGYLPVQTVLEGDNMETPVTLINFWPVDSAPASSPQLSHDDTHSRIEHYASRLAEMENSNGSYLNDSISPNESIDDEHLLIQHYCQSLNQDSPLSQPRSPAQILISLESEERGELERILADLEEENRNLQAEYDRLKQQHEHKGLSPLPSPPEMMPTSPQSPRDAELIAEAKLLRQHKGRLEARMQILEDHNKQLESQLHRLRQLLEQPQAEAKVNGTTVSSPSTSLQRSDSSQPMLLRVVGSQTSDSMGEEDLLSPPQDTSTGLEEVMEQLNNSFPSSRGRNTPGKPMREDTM
UniProt Q9UNQ2: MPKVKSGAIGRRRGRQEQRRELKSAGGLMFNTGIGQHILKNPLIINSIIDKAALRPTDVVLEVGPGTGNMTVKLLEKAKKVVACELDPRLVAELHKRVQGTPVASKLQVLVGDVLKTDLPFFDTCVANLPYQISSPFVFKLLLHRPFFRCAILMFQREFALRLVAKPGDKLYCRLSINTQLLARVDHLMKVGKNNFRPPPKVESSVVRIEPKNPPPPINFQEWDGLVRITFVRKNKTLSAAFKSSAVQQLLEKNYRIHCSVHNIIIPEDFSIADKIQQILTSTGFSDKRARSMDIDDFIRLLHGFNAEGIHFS
UniProt Q8NDZ4: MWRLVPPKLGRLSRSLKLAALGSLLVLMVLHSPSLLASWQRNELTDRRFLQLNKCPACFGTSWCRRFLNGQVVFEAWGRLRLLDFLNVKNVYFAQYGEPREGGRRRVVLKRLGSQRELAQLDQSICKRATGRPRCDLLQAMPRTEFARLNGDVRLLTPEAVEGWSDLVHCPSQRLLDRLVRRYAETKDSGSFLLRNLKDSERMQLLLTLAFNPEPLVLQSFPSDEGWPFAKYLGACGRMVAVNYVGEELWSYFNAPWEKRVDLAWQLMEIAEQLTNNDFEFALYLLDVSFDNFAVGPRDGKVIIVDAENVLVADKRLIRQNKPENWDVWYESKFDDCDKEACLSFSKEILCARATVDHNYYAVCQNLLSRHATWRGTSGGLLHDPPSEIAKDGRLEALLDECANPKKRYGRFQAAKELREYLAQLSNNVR
UniProt O00273: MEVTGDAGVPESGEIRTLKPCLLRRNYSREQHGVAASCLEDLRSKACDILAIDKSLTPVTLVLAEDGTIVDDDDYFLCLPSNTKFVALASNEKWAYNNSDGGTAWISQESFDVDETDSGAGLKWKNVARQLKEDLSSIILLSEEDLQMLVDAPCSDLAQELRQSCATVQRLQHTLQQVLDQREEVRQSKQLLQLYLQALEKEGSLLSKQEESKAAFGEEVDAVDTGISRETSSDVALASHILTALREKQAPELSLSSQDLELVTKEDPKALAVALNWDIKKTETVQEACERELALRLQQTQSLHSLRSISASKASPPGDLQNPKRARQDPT

This is one part of the list.

Compound in this assay: COC(=O)[C@H](CCSC)NC(=O)C1=C(C=C(C=C1)NC[C@H](CS)N)C2=CC=CC=C2
Nature of the assay: log2 fold change, soluble protein after heating vs DMSO (PISA); higher = thermal stabilisation; K562 cells, 10 uM, 30 min; active = over 0.2 and 3.5 SD of the protein, either way, in both replicates (recomputed). The method in brief: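 Soluble protein was quantified by TMTpro 16plex LC-MS/MS after channel sums were equalised. It was obtained as the supernatant after 21,000xg for 90 min from pooled aliquots of K562 cells (2×10^6 cells/mL, 10 μM compound, 30 min) heated for 3 min across 48°C-58°C and extracted in PBS with 0.5% NP-40 at 4°C. Thermal stability values are relative to control samples and come from duplicates. They are given as log2 fold changes.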
In the case of DGCR8 (UniProt Q8WYQ5), the log2 fold change was inactive: -0.051.

In the case of DENND6A (UniProt Q8IWF6), the log2 fold change is inactive: 0.048.

DHX57 (UniProt Q6P158): the log2 fold change was inactive: 0.018.

Take DHRS11 (UniProt Q6UWP2): the log2 fold change is inactive: -0.021.

Turning to DENR (UniProt O43583), the log2 fold change was inactive: 0.048.

For DHX15 (UniProt O43143), the log2 fold change was inactive: 0.009.

With DEK (UniProt P35659), the log2 fold change was inactive: -0.042.

For DENND4C isoform 7 (UniProt Q5VZ89), the log2 fold change is inactive: -0.005.

With DDX21 (UniProt Q9NR30), the log2 fold change is inactive: 0.

With DLG3 (UniProt Q92796), the log2 fold change is inactive: -0.098.

Turning to DENND4B (UniProt O75064), the log2 fold change is inactive: -0.013.

Take DDHD2 (UniProt O94830): the log2 fold change was inactive: -0.016.

Regarding DIP2B (UniProt Q9P265), the log2 fold change was inactive: -0.018.

In the case of DIS3L (UniProt Q8TF46), the log2 fold change was inactive: -0.079.

Take DDT (UniProt P30046): the log2 fold change was inactive: 0.045.

On to DDI2 isoform 3 (UniProt Q5TDH0), for which the log2 fold change is inactive: -0.028.

Turning to DICER1 (UniProt Q9UPY3), the log2 fold change was inactive: -0.087.

Take DDX41 (UniProt Q9UJV9): the log2 fold change was inactive: 0.024.

Take DNAH9 (UniProt Q9NYC9): the log2 fold change was inactive: 0.01.

For DDX19B (UniProt Q9UMR2), the log2 fold change is inactive: -0.03.

Consider DDX49 (UniProt Q9Y6V7), for which the log2 fold change was inactive: -0.037.

With DDAH2 (UniProt O95865), the log2 fold change was inactive: 0.051.

Take DHDDS isoform 2 (UniProt Q86SQ9): the log2 fold change was inactive: -0.099.

As to DGKZ (UniProt Q13574), the log2 fold change is inactive: 0.092.

For the target DMTN (UniProt Q08495), the log2 fold change is inactive: -0.009.

In the case of DMD (UniProt P11532), the log2 fold change was inactive: -0.007.

On to DGUOK (UniProt Q16854), for which the log2 fold change was inactive: 0.039.

DDB2 (UniProt Q92466): the log2 fold change was inactive: 0.059.

Take DNAJA2 (UniProt O60884): the log2 fold change was inactive: -0.007.

In the case of DIMT1 (UniProt Q9UNQ2), the log2 fold change was inactive: 0.015.

Turning to DIPK2A (UniProt Q8NDZ4), the log2 fold change was inactive: -0.051.

Take DHX8 (UniProt Q14562): the log2 fold change is inactive: 0.016.

Regarding DFFA (UniProt O00273), the log2 fold change is inactive: 0.039.

For the target DDX23 (UniProt Q9BUQ8), the log2 fold change was inactive: 0.026.

As for DMXL2 isoform 3 (UniProt Q8TDJ6), the log2 fold change was inactive: 0.021.

Regarding DERL1 (UniProt Q9BUN8), the log2 fold change was inactive: 0.004.
